Test results as given in US9744222B2 (Circassia Limited, priority 2007, dated 2017).
Where no end group is shown, it is not given here.

Experiment: peptide synthesis
Conditions: whole synthesis

Sequence	purity (crude or final not stated)
VDFKGELAMRNIEAR	82.1%
VDFKGELAMRNIE	79.8%
KVLAPAFKKELER	90.8%
